Measured data: PubChem BioAssay AID504786 (Drosophila RNAi Screening Center, 2011)
The screen tested about 21,000 reagents; this is a random part of those that have a named target and a result. 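Primary screen; positive scores mean lost reporter signal, so the sign may be inverted from the usual convention.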 The numbers tell different reagents against one gene apart. A plus sign joins genes that one reagent is predicted to hit.

Screen: 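Knock-downs reducing HIF reporter induction by the iron chelator DFO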 (primary screen)
System: Drosophila S2 cells with a stable HIF luciferase reporter
Knock-down reagent: long dsRNA against Drosophila genes, about 0.2 µg dsRNA per well of a 384-well plate
Time to read-out: three days of knock-down, then 20 h of DFO before reading
Conditions: desferrioxamine (DFO) at 100 µM, an iron chelator that mimics hypoxia, for 20 h
Measured: 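HIF reporter luminescence in cells given 100 µM DFO for 20 h, using the mouse ldh-a hypoxia-response element, scored as per-plate z-scores; higher means greater loss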
Direction: z-score: higher = stronger loss of HIF reporter signal

no.	target	reagent	z-score, replicate 1	z-score, replicate 2	z-score, replicate 3	z-score, replicate 4
1	atlas	1	0	0.5		
2	tyf	1	-0.2	-0.3		
3	Lcp65Ae	1	0.1	0.2		
4	Pdh	1	-0.2	-0.2		
5	CG17198 + CG17197	1	-0.2	0.1		
6	CG17198 + CG17197	2	-0.3	-0.7		
7	CG14132	1	-0.3	-0.4		
8	so	1	0.1	0.3	3.1	2.7
9	Cyp313a2	1	-0.4	-0.3		
10	CG14626	1	-0.3	-0.1		
11	Plp	1	-0.5	0.7		
12	Plp	2	-0.2	0		
13	Plp	3	-0.4	-0.3		
14	Hrb87F	1	-0.4	0.6		
15	RalGPS	1	-0.2	-0.4		
16	tkv + CR14033 + tRNA:Asp-GTC-2-1 + 1 more	1	0	-0.2	0.5	-0.4
17	TfAP-2	1	-0.3	-0.2		
18	vnd	1	-0.3	0.4		
19	vnd	2	-0.4	-0.1	0.8	0.3
20	Gr89a	1	0	0.5		
21	p24-1	1	-0.2	-1.2		
22	sw	1	-0.3	-0.2		
23	sim	1	-0.2	-0.1		
24	CG10365	1	-0.3	-0.7		
25	ATPsyndelta	1	1.1	1.1		
26	CG6873	1	1.4	2.4		
27	CG11583	1	0.6	2.8		
28	beat-Vc	1	0.1	0		
29	beat-Vc	2	-0.2	0		
30	Xe7	1	-0.4	-0.7		
31	Muc18B	1	-0.3	-0.3		
32	Tsp42Ee	1	-0.2	-0.1		
33	CG6418	1	0.2	0.2		
34	CG4884	1	-0.2	0.2		
35	CG6659	1	-0.3	-0.7		
36	CG1227	1	-0.3	-0.3		
37	Paip2	1	-0.4	-0.6		
38	CG7011	1	-0.6	-0.3		
39	CG13367	1	-0.3	-0.6		
40	CG13367	2	-0.3	-0.1		
41	CG42552 (retired record)	1	-0.6	-0.7		
42	Prip	1	-0.3	-0.5		
43	CG31862	1	0.3	0.4		
44	Nubp2	1	-0.3	-0.1		
45	CG9286	1	0.3	0.7		
46	tbrd-3	1	-0.4	-0.5		
47	MESR3	1	0	-0.2		
48	l(2)09851	1	-0.1	-0.4		
49	CG2278	1	-0.2	-0.6		
50	S-Lap1	1	-0.2	-0.7		
51	Tbcc	1	0.4	-0.1		
52	ppk28	1	-0.2	-0.5		
53	Camp	1	-0.4	-0.7		
54	Xrp1	1	4.1	4.9		
55	Xrp1	2	1.2	1.5		
56	Fs	1	-0.3	-0.3		
57	Fs	2	-0.4	-0.1		
58	CG42361	1	0.1	-0.2		
59	CG14662	1	0	-0.2		
60	ng3	1	-0.2	0.1		
61	Hecw	1	-0.2	-1		
62	Hecw	2	0	-0.3		
63	Calr	1	-0.3	-0.5		
64	Mob4	1	0.1	0.1		
65	CG6426	1	-0.2	0.6		
66	CG15368	1	-0.3	0.7		
67	CG34008	1	-0.2	-0.3		
68	18w	1	-0.2	-0.4		
69	WRNexo	1	-0.2	-0.3		
70	AIMP2	1	-0.3	-0.5		
71	CG31777	1	0.4	-0.3		
72	CG32213 + CG12519 + 825-Oak + 1 more	1	-0.1	-0.8	-0.7	-0.2
73	CG31229	1	2.2	2.9		
74	CG7381	1	-0.3	-0.2		
75	CG14696	1	0.1	-0.1		
76	GstD3	1	-0.4	-0.7		
77	CG42471	1	0	0		
78	flap	1	0.2	0		
79	flap	2	-0.3	-0.1		
80	Dci	1	0.1	-0.2		
81	Hpf1	1	-0.4	-0.7		
82	Pms2	1	-0.2	-0.1		
83	CG14573	1	-0.2	-0.3		

Laid out differently: 12 of the entries above.
{"target": "CG9286", "reagent": 1, "z-score, replicate 1": 0.3, "z-score, replicate 2": 0.7}
{"target": "tbrd-3", "reagent": 1, "z-score, replicate 1": -0.4, "z-score, replicate 2": -0.5}
{"target": "MESR3", "reagent": 1, "z-score, replicate 1": 0, "z-score, replicate 2": -0.2}
{"target": "l(2)09851", "reagent": 1, "z-score, replicate 1": -0.1, "z-score, replicate 2": -0.4}
{"target": "CG2278", "reagent": 1, "z-score, replicate 1": -0.2, "z-score, replicate 2": -0.6}
{"target": "S-Lap1", "reagent": 1, "z-score, replicate 1": -0.2, "z-score, replicate 2": -0.7}
{"target": "Tbcc", "reagent": 1, "z-score, replicate 1": 0.4, "z-score, replicate 2": -0.1}
{"target": "ppk28", "reagent": 1, "z-score, replicate 1": -0.2, "z-score, replicate 2": -0.5}
{"target": "Camp", "reagent": 1, "z-score, replicate 1": -0.4, "z-score, replicate 2": -0.7}
{"target": "Xrp1", "reagent": 1, "z-score, replicate 1": 4.1, "z-score, replicate 2": 4.9}
{"target": "Xrp1", "reagent": 2, "z-score, replicate 1": 1.2, "z-score, replicate 2": 1.5}
{"target": "Fs", "reagent": 1, "z-score, replicate 1": -0.3, "z-score, replicate 2": -0.3}
